Measured values as given in PMC3296614.

Target: HA-tagged PfCK2β2 (P. falciparum)
Experiment: affinity purification with mass spectrometry; extracts (M-PER, protease inhibitors, benzonase) of parasites expressing HA-tagged PfCK2β1 or PfCK2β2 incubated overnight with anti-HA crosslinked onto sepharose beads, three washes in TBS, elution in boiled Laemmli buffer, SDS-PAGE, in-gel trypsin digestion, LC-MS/MS; wild-type 3D7 extract as negative control

B1: Histone H2B variant (protein, UniProt Q8IBV7 1-123)
chain: MSGKGPAQKSQAAKKTAGKTLGPRHKRKRRTESFSLYIFKVLKQVHPETGVTKKSMNIMNSFINDIFDRLVTEATRLIRYNKKRTLSSREIQTAVRLLLPGELSKHAVSEGTKAVTKYTTSAA
binding: no binding

These are yes or no findings as the source states them, for the method shown. In cells and extracts the contact can be indirect. These calls come from enrichment with a bait or labelling near it, and not all partners need be listed. No binding means not detected with the bait. Sequences can lack the tags named with a protein.
